Values of other authors in patent US20070238696A1, “Dosage unit for cardioprotection” (priority 2000, published 2007).

Test system: plasma LDL
Conditions: in vivo

SMILES: CC(C)c1c(C(=O)Nc2ccccc2)c(-c2ccccc2)c(-c2ccc(F)cc2)n1CC[C@@H](O)C[C@@H](O)CC(=O)O [atorvastatin]
- Maximal plasma LDL reduction: 60%
